Results reported in paper doi:10.1101/2022.01.20.477077.
Results are given in words; binding and its absence hold for the method and conditions named. Binding seen in cells or lysates may run through a third protein. Some entries that bind do so weakly or less than the wild type. Where a sequence is shown, tags or fusion partners need not be part of it.

Chains of the proteins cited; added tags and fusions are not shown.
UniProt O60493: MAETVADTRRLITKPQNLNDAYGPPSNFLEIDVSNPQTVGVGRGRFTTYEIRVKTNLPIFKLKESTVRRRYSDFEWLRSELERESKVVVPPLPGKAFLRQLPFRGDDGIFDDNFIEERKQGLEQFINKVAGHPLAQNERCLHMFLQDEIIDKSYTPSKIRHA

Target: T1, His-V5-tagged human FRABIN (human) (UniProt Q96M96)
T1 sequence: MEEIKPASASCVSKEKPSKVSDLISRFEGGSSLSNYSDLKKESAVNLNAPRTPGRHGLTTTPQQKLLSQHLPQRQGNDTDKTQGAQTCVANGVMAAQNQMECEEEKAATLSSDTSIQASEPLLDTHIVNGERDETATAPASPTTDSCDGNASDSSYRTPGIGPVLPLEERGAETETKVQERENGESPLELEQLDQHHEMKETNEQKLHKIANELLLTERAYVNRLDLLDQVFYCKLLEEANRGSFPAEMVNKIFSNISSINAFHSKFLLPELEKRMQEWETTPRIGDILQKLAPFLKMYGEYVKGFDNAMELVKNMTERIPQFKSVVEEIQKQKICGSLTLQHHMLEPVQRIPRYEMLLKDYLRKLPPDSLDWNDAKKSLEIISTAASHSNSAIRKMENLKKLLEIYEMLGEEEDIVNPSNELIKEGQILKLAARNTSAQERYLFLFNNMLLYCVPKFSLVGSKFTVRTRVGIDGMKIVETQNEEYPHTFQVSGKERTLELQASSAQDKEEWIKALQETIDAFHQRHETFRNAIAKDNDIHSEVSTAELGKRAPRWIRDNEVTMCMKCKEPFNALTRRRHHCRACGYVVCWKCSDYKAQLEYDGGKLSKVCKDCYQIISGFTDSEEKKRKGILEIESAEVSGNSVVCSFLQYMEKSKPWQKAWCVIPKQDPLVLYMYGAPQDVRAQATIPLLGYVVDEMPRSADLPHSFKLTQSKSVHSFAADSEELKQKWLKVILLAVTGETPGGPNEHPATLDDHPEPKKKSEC
Test: co-IP

Substance: SNX3 in HEK293 lysate (from UniProt O60493 1-162)
- binding: binds
